Laboratory results: PMC8688437
No constants are given. Whether binding was seen depends on the method and setting. In cells and extracts the contact can be indirect. Some binding calls cover weakened binding; strength is not graded here. For some assays here: Tags and fused reporters may be left off the sequences shown.

The chains behind the UniProt entries cited, without tags or fusion partners.
UniProt P01106: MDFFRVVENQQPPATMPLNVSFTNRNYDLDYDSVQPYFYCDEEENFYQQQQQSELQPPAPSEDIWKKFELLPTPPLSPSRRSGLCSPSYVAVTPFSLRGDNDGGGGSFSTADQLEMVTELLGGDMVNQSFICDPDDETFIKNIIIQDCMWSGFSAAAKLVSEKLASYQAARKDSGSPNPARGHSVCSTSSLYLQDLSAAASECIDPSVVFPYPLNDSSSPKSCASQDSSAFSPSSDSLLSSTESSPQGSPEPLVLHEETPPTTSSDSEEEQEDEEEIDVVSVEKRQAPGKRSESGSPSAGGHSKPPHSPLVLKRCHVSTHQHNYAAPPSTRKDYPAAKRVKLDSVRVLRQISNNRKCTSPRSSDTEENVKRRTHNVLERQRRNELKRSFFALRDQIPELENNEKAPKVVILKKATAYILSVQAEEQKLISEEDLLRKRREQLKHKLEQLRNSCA

Legend:
[1] = molecular target: T1, FLAG-tagged MYEOV (human) (UniProt Q96EZ4); assay: co-IP; IP of FLAG-MYEOV from lysates of transfected 293 T cells, Western blot for HA-MYC; lysis buffer 50 mM Tris-Cl pH 7.4, 150 mM NaCl, 0.5% Triton X-100, 1 mM EDTA; 4 °C; protein A/G agarose beads
T1 sequence: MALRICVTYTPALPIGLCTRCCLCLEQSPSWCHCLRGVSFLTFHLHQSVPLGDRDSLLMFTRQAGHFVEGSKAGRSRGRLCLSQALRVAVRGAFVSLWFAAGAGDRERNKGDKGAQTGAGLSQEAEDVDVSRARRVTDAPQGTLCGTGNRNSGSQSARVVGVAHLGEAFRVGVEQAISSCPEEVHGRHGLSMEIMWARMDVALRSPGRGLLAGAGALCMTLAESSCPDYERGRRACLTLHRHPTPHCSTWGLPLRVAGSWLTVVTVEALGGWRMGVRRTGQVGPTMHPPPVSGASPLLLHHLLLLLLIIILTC

[2] = molecular target: T2, endogenous MYEOV (human (endogenous in PANC-1)) (UniProt Q96EZ4); assay: co-IP; endogenous proteins from PANC-1 cell lysate; lysis buffer 50 mM Tris-Cl pH 7.4, 150 mM NaCl, 0.5% Triton X-100, 1 mM EDTA; 4 °C; protein A/G agarose beads
T2 sequence: T1 sequence

Substance | binding [1] | binding [2]
HA-tagged MYC (from UniProt P01106 1-454) | binds | –
endogenous MYC (from UniProt P01106 1-454) | – | binds
